Article PMC7819943, “Rice protein-binding microarrays: a tool to detect cis-acting elements near promoter regions in rice”
The other results are listed elsewhere or left out.

The chains behind the UniProt entries cited, without tags or fusion partners.
UniProt Q0JBA9, entry or part of it: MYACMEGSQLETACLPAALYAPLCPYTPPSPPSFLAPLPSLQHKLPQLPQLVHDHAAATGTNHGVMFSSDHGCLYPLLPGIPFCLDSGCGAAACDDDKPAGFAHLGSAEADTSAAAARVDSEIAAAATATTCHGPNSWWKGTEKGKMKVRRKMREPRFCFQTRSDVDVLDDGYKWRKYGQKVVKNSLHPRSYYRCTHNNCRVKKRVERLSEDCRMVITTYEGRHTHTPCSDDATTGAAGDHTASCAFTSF

The sequences below were run against OsWRKY34 (Oryza sativa, UniProt Q0JBA9 1-250) (assay: protein-binding microarray (RPBM); PBS, 2% BSA, 51.3 ng/ul salmon testes DNA, 50 uM zinc acetate, 200 nM TF, 25 C, 1 h; high values mean tight binding). Details: protein: recombinant; tags: N-terminal polyhistidine and DsRed monomer fusion (pET32a); label: CyDye5-dUTP incorporated in the synthesized complementary strand; 3' TTTTT single-stranded linker to array surface; dsDNA, one strand shown.
Procedure, shortened: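 Ni–NTA purification followed expression in E. coli BL21-CodonPlus of transcription factors fused N-terminally to a polyhistidine tag and DsRed. At 200 nM in PBS with 2% BSA, salmon testes DNA and 50 µM zinc acetate, the protein was incubated for 1 h at 25 °C with a custom Agilent array that had been primer-extended with Cy5-dUTP and blocked with 2% BSA. After washing, the array was read on an Axon 4000B scanner. The binding signal is per-feature fluorescence intensity in arbitrary units.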

Sequence | binding signal
GCCCTGACCCGCCAAGTCGCGATCGCAACTCACACATGCTCGGAGTCACCTAGTGCAG | 10500 fluorescence intensity (a.u.)
CTCACTTTTTTTCTCTTTTGGATTTCTTTCTGCCGTCATCCGGAGTCACCTAGTGCAG | 13900 fluorescence intensity (a.u.)
AATTTTATGCAGGTGCTGTACCCTATGTGCTGCTTTTTTTCGGAGTCACCTAGTGCAG | 10300 fluorescence intensity (a.u.)
CTCCCGTCTCGTCGTCTCCTCCGCTCCTTGCGCCATCTCGCGGAGTCACCTAGTGCAG | 11100 fluorescence intensity (a.u.)
ATTAGTGGGCCAGTCTGCCATTGGACGCTTAGGTGCTTGTCGGAGTCACCTAGTGCAG | 8380 fluorescence intensity (a.u.)
GTTTTTCCTTTTAAGGTGCTTATATTTCATCCAAAATTTTCGGAGTCACCTAGTGCAG | 9900 fluorescence intensity (a.u.)
AGAGTTGTTTTGGGATTTTTTTTCATCGCGGTTTATTCTTCGGAGTCACCTAGTGCAG | 9310 fluorescence intensity (a.u.)
AAGATTCTGGAACCTTCTAGACGCACCCGCTGCCCGTATACGGAGTCACCTAGTGCAG | 9700 fluorescence intensity (a.u.)
TTTGCCCATTAGTTTCTCATTGATAATCACCGACACTTTCCGGAGTCACCTAGTGCAG | 8990 fluorescence intensity (a.u.)
TTTTCCTATCATTTGTTTTGCACACGCGTTCCTATACGATCGGAGTCACCTAGTGCAG | 9480 fluorescence intensity (a.u.)
AATAGATGACATTTTTGACTTTTTATTTGTAACGTTTGATCGGAGTCACCTAGTGCAG | 10500 fluorescence intensity (a.u.)
GGCGGTGAGTTTGTGTTTGTTTTCTGCTGTGTCTGTGCGACGGAGTCACCTAGTGCAG | 8070 fluorescence intensity (a.u.)
ATCAGCCGCTTCTCCTCCTCCACGTCCATCGCCGCCGGCGCGGAGTCACCTAGTGCAG | 8080 fluorescence intensity (a.u.)
TTGGAAATTTGCTATTCCTAGGTGGTGATTTGTGGGCGTTCGGAGTCACCTAGTGCAG | 8940 fluorescence intensity (a.u.)
GAGTTGTATAGGAGTTGTATATGATTCAAATTTACTTTGTCGGAGTCACCTAGTGCAG | 8340 fluorescence intensity (a.u.)
GTATATATATATATATGTGTGTGTGTGTGTATATATATATCGGAGTCACCTAGTGCAG | 8410 fluorescence intensity (a.u.)
CACCCATCTCCTTGCCGGCCTCTCCACCCCGCCTCTTTCGCGGAGTCACCTAGTGCAG | 9120 fluorescence intensity (a.u.)
ACATGTTTTCTGCTTTACGATATTGCTTTCAGTACACCATCGGAGTCACCTAGTGCAG | 8150 fluorescence intensity (a.u.)
GATAATAGGTTCTATGTGCGCTTCAGTTTCAAATCTTTTTCGGAGTCACCTAGTGCAG | 12700 fluorescence intensity (a.u.)
TGAAGGGAAATCTGAATCTGGACATGGCAAAGGCGTTGACCGGAGTCACCTAGTGCAG | 12400 fluorescence intensity (a.u.)
GTGTAGGTAAGATGGTAGAAGTTGGTTTTTTTGATAAAATCGGAGTCACCTAGTGCAG | 8130 fluorescence intensity (a.u.)

Sequence | binding signal
TTCATCAGCTGAGGTCGGCACTTGCTCATCTTTGCCGATTCGGAGTCACCTAGTGCAG | 9420 fluorescence intensity (a.u.)
GCACACACTCTCCCTTTGCCTCGCGCAGAGGCGGCCGCGCCGGAGTCACCTAGTGCAG | 8150 fluorescence intensity (a.u.)
AGCAACTGTTTAATCCTTGACCTTCTGCTTGGTCTAGTGACGGAGTCACCTAGTGCAG | 8250 fluorescence intensity (a.u.)
CCACACACCACGATCTCCCGTACCTTCTCTCTGCGAGATGCGGAGTCACCTAGTGCAG | 10100 fluorescence intensity (a.u.)
GGATTTTTTGAAAAAAAATTTCGCCCTTTTTTACCGCGTTCGGAGTCACCTAGTGCAG | 8820 fluorescence intensity (a.u.)
CTTAGGGTTCAGGGTCTAGGCGTCTGTTTATCCTTTATCTCGGAGTCACCTAGTGCAG | 9800 fluorescence intensity (a.u.)
CTCTCTCTATCCATCTCTTTCTCTCTCTCTTACACAACAACGGAGTCACCTAGTGCAG | 8150 fluorescence intensity (a.u.)
GTTACAGGATGTCTGACCTTCATTTTCTTTCAGCTGAAGGCGGAGTCACCTAGTGCAG | 8170 fluorescence intensity (a.u.)
CATCAGATAACCAGCCAACACAACCATGAGGGGAGGGGAGCGGAGTCACCTAGTGCAG | 8790 fluorescence intensity (a.u.)
AAATCTCGTCTTTGTTTAGTATCTTTAACAACCATTTGTCCGGAGTCACCTAGTGCAG | 9830 fluorescence intensity (a.u.)
GATTGATTATCCTTTTCTTAAACTATTTTCCTGTTTTTCACGGAGTCACCTAGTGCAG | 13200 fluorescence intensity (a.u.)
ATTGGTAGTATCGAGAGTCAATTTGTACTGTTCCATTTTTCGGAGTCACCTAGTGCAG | 9230 fluorescence intensity (a.u.)
ATCAATCAATTTTTCGGCGTCCTAATTACCTGCAGGAACACGGAGTCACCTAGTGCAG | 8900 fluorescence intensity (a.u.)
CCTTCTCGGGCCTCGGTTTGCTCAGATCCACCGCGTCGCGCGGAGTCACCTAGTGCAG | 10700 fluorescence intensity (a.u.)
TTCCATCGATCCCTTATCCTGTTTAAACCTTCTAGAATCTCGGAGTCACCTAGTGCAG | 9580 fluorescence intensity (a.u.)
CTCCCTATCGGCGGCCGTTACCACTGCCTGTCGCTGCCATCGGAGTCACCTAGTGCAG | 12600 fluorescence intensity (a.u.)
GCCGCCGCCGCCGCAGCAGCCGCCACCGCCGCCGGAATCCCGGAGTCACCTAGTGCAG | 8080 fluorescence intensity (a.u.)
TCGGTGGATTCGCGTCGTTGGGTTTGGCCGCTGGGAGCGGCGGAGTCACCTAGTGCAG | 8100 fluorescence intensity (a.u.)
TACCACGTTGTCCGGTATTTCCATCTTCGTTTCCTTCCTACGGAGTCACCTAGTGCAG | 11800 fluorescence intensity (a.u.)
AGGTGGTCGGGCGCCAGTTGGAGGGGTGGCCGGTGGCGCTCGGAGTCACCTAGTGCAG | 8090 fluorescence intensity (a.u.)
TTTTTTTTGACTTTTTCGGTGTATTTTTCGATAAGGGGACCGGAGTCACCTAGTGCAG | 8940 fluorescence intensity (a.u.)

Single entries from the results shown:
binding signal, AGGTGGTCGGGCGCCAGTTGGAGGGGTGGCCGGTGGCGCTCGGAGTCACCTAGTGCAG is entered as 8090 fluorescence intensity (a.u.)
binding signal, TCGGTGGATTCGCGTCGTTGGGTTTGGCCGCTGGGAGCGGCGGAGTCACCTAGTGCAG is entered as 8100 fluorescence intensity (a.u.)
binding signal, CCACACACCACGATCTCCCGTACCTTCTCTCTGCGAGATGCGGAGTCACCTAGTGCAG is entered as 10100 fluorescence intensity (a.u.)
binding signal, GCCGCCGCCGCCGCAGCAGCCGCCACCGCCGCCGGAATCCCGGAGTCACCTAGTGCAG is entered as 8080 fluorescence intensity (a.u.)
binding signal, TACCACGTTGTCCGGTATTTCCATCTTCGTTTCCTTCCTACGGAGTCACCTAGTGCAG is entered as 11800 fluorescence intensity (a.u.)
binding signal, TTTTTTTTGACTTTTTCGGTGTATTTTTCGATAAGGGGACCGGAGTCACCTAGTGCAG is entered as 8940 fluorescence intensity (a.u.)
binding signal, CATCAGATAACCAGCCAACACAACCATGAGGGGAGGGGAGCGGAGTCACCTAGTGCAG is entered as 8790 fluorescence intensity (a.u.)

Next results follow:

Sequence | binding signal
GCCGCCGCCGCCGCACCCGCCGATCTCCATCCTGCGAGCACGGAGTCACCTAGTGCAG | 8300 fluorescence intensity (a.u.)
TAGTGTTTGTCTGCTTTTTTCTTCTTTTGGTCTAGCAATTCGGAGTCACCTAGTGCAG | 9100 fluorescence intensity (a.u.)
CTTCCCCGCCCCGCCACCTCTCATCTCATCCGCGCCGCCGCGGAGTCACCTAGTGCAG | 9730 fluorescence intensity (a.u.)
GGGCTCATTGTGTTGCAATAACTGGTATACTACTAGTTGACGGAGTCACCTAGTGCAG | 8480 fluorescence intensity (a.u.)
AGGGTTTTGGCCTGTGTGTGTGGGGATTTGGCTGGCCAAGCGGAGTCACCTAGTGCAG | 13500 fluorescence intensity (a.u.)
AGATATTCTCCTATGCATATCCATCCCCTTGGGTTCCTACCGGAGTCACCTAGTGCAG | 8240 fluorescence intensity (a.u.)
TATCCGCACCACGCCACGCCACGACACCGAAACCGACTTCCGGAGTCACCTAGTGCAG | 8870 fluorescence intensity (a.u.)
CTTCACCTATTGCTGTTCTTCAAATTGTCCTTACCTGATTCGGAGTCACCTAGTGCAG | 12200 fluorescence intensity (a.u.)
GCGGACGGTGGAGAGGGAGGGTGGAGTGAGAGTGGAGATCCGGAGTCACCTAGTGCAG | 8480 fluorescence intensity (a.u.)
CGGCGGAATTTTTTTTCTTTTTGGTCTCCCTGTTCCATCTCGGAGTCACCTAGTGCAG | 8280 fluorescence intensity (a.u.)
TTCCAGTGTTGATAGGTTAGTCACGGTTTATTAGTAGAGTCGGAGTCACCTAGTGCAG | 9340 fluorescence intensity (a.u.)
CTTGTACTAGCTAGATGCCTTTCAGTACTGCATATGTTATCGGAGTCACCTAGTGCAG | 8480 fluorescence intensity (a.u.)
AACCTACTAGCTAGCTTAGTGTACTCTGTGTACTGTATATCGGAGTCACCTAGTGCAG | 8190 fluorescence intensity (a.u.)
ATATATATATATATATATATATATATATATATAAACCCAACGGAGTCACCTAGTGCAG | 11400 fluorescence intensity (a.u.)
GCATGTCCAGTTCGTCTAAAGCTTTCTCAAACATATCTAACGGAGTCACCTAGTGCAG | 8420 fluorescence intensity (a.u.)
TGTTAAGATATTAGGGGTAGTTTAGTATTTTCGTATCACTCGGAGTCACCTAGTGCAG | 8740 fluorescence intensity (a.u.)
AGACCCTTGCATTCAGAGACATATCACCCCAAGCTCCAGTCGGAGTCACCTAGTGCAG | 8800 fluorescence intensity (a.u.)
CCAGTTTTGTTGTGTGTCACTGCTGTTTTGTTTCATGAAACGGAGTCACCTAGTGCAG | 10800 fluorescence intensity (a.u.)
TTCCATGCTTGATGTGTGAGTGATGTGGCCATAAATTAGACGGAGTCACCTAGTGCAG | 8990 fluorescence intensity (a.u.)
GTAATTTAACTCTCTCAGCGGTTTTAGTGGGTTGTTTCGTCGGAGTCACCTAGTGCAG | 8880 fluorescence intensity (a.u.)
GGGGCCCACTTCGGTGGCCCCGCCCGCGGTATTTATTTTTCGGAGTCACCTAGTGCAG | 8380 fluorescence intensity (a.u.)

Sequence | binding signal
GTCGGCCACCTAAAGGTTTTTTTTTTCCTTTTTTTTTCTTCGGAGTCACCTAGTGCAG | 8900 fluorescence intensity (a.u.)
TCGCTCTTTCGGGTTGGGTGCTGGATTCCATCTTGTATGCCGGAGTCACCTAGTGCAG | 13300 fluorescence intensity (a.u.)
TATGTAGTCCACAGCTCTCCTCTTTCTTCCTTTATCTCTTCGGAGTCACCTAGTGCAG | 9200 fluorescence intensity (a.u.)
AAGTGCAGTTTTGTATTATTCACGTTCAACGTTTGACCACCGGAGTCACCTAGTGCAG | 9470 fluorescence intensity (a.u.)
TCTATACTCTACTTCCAATATTCCTTATTTTTTTAATTCCCGGAGTCACCTAGTGCAG | 8900 fluorescence intensity (a.u.)
TGCACCACTGCTGCCGTTATCGCTTCCCGCACCTGACAAGCGGAGTCACCTAGTGCAG | 8100 fluorescence intensity (a.u.)
GCCCCATCAGCTTGCGGCAGTGCGTCGTCGACGATAAAGGCGGAGTCACCTAGTGCAG | 8220 fluorescence intensity (a.u.)
CTCTAAATTTGTTCGTCCGTGTCGTCCAGGTCACCAAACTCGGAGTCACCTAGTGCAG | 9420 fluorescence intensity (a.u.)
CCTTTGGCCACTGCTTTGCTCTTTTGACACAACATACTCACGGAGTCACCTAGTGCAG | 9680 fluorescence intensity (a.u.)
CTCCTCCGTTGACCGCCACCGTTGACCTCCCCGCCGGCGACGGAGTCACCTAGTGCAG | 16300 fluorescence intensity (a.u.)
TTGGTGAGGGTTTGGGTTTGGTGGTGGAGTGGAGTGGAGTCGGAGTCACCTAGTGCAG | 10700 fluorescence intensity (a.u.)
ACAGCCCATACCTTACCATGCATCTGCATGCAGCAGCAGACGGAGTCACCTAGTGCAG | 8260 fluorescence intensity (a.u.)
GCGTCGCCTGCCGCCTCCGCTTCCGCTCCACTCCGCTTCGCGGAGTCACCTAGTGCAG | 12000 fluorescence intensity (a.u.)
TCGCTGCCCATCACTTCGCCATCCTCGCCGACGCCGACGCCGGAGTCACCTAGTGCAG | 8630 fluorescence intensity (a.u.)
TTCCGTTACCCTTTTGCCTCGTACTGGCACCTATATAGCCCGGAGTCACCTAGTGCAG | 8930 fluorescence intensity (a.u.)
CTCTCTCTGTTTTCTCTCCTCCCTTCCTTCCTGTCGCTCTCGGAGTCACCTAGTGCAG | 9060 fluorescence intensity (a.u.)
TCTTTTGTACCCTTATCAGTATTCAGGCTATGCTGTAATGCGGAGTCACCTAGTGCAG | 8490 fluorescence intensity (a.u.)
CTCCATCCTAAAATGTTTGACGCCGTTGACTTTTTTAAATCGGAGTCACCTAGTGCAG | 24500 fluorescence intensity (a.u.)
TCTCTCTCTCTCTCTCCATCGCTCTCACTTTCTCTCTCCTCGGAGTCACCTAGTGCAG | 10300 fluorescence intensity (a.u.)
ATCTCCATCTTCATCTTCAATATTCAAACACCACCGTAGTCGGAGTCACCTAGTGCAG | 9790 fluorescence intensity (a.u.)
GTAGTCATCCATGATCCATGCTTGTACGTGTGCTAGTGCTCGGAGTCACCTAGTGCAG | 8430 fluorescence intensity (a.u.)
